Results deposited as PubChem BioAssay AID504804 (Drosophila RNAi Screening Center, 2011)
Test: 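Knock-downs shielding fly cells from apoptosis caused by DNA damage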 (primary screen). System: Drosophila Kc cells. Knock-down reagent: long dsRNA against Drosophila genes, 0.5 µg dsRNA per well. Time to read-out: 96 h (48 h knock-down, then 48 h drug). Conditions: doxorubicin 5 µg/ml for 48 h, added 48 h after dsRNA. Measurement: 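Luminescent ATP counts per replicate, not normalised, reflecting viable cells after 48 h dsRNA knock-down followed by 48 h of 5 µg/ml doxorubicin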. Reading the numbers: raw ATP luminescence: higher = more viable cells, protection from doxorubicin. Call rule: 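z-score of 2 or more over plate mean in both duplicates, retained only when retests and separate dsRNAs confirm the protection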.
The screen tested about 19,000 reagents; shown is an unselected part of those with a known target gene and a result. Of all reagents, 47 (0.25%) were called active. 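Signals are raw, not normalised; exact z-scores behind calls not deposited; actives needed confirmation, so some wells reaching 2 SD are inactive.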 Unmarked entries are inactive. Reagent sequences are not shown.

no.	target	dsRNA	raw ATP luminescence, replicate 1	raw ATP luminescence, replicate 2
1	CG5910 (GeneID 40264)	DRSC11786	61873	52830
2	pwn (GeneID 44011)	DRSC06035	57963	75570
3	siz (GeneID 40327)	DRSC11622	67977	63550
4	siz (GeneID 40327)	DRSC11689	69783	56097
5	siz (GeneID 40327)	DRSC11690	79290	75033
6	Npc2e (GeneID 326136)	DRSC15522	62730	55373
7	CG15373 (GeneID 32784)	DRSC19663	3.65e5	3.39e5
8	Mcr (GeneID 44071)	DRSC03366	1.19e5	74667
9	Edem2 (GeneID 34714)	DRSC02877	67070	99760
10	lncRNA:CR40629 (GeneID 10178881)	DRSC20959	2.49e5	2.52e5
11	CG7294 (GeneID 34470)	DRSC03041	50983	68013
12	witty (GeneID 34145)	DRSC02378	41997	80503
13	pgc (GeneID 5740599)	DRSC04099	23583	26953
14	MTPAP (GeneID 31081)	DRSC18585	34250	62080
15	CG15435 (GeneID 33655)	DRSC00450	18683	20677
16	clumsy (GeneID 35394)	DRSC03111	63333	60057
17	obst-B (GeneID 34336)	DRSC01987	1.05e5	68387
18	CG13653 (GeneID 43025)	DRSC14653	74740	99140
19	Rala (GeneID 31332)	DRSC18703	37190	43950
20	gus (GeneID 35478)	DRSC04885	56783	56653
21	gus (GeneID 35478)	DRSC04886	44743	45717
22	TwdlO (GeneID 43204)	DRSC16043	32450	42360

A run of entries from the list above, as a working copy:
no.	target	dsRNA	raw ATP luminescence, replicate 1	raw ATP luminescence, replicate 2
5	siz (GeneID 40327)	DRSC11690	79290	75033
6	Npc2e (GeneID 326136)	DRSC15522	62730	55373

Additional entries follow.
no.	target	dsRNA	raw ATP luminescence, replicate 1	raw ATP luminescence, replicate 2
23	Bmcp (GeneID 39322)	DRSC10808	53920	47270
24	mnb (GeneID 32771)	DRSC20058	2.04e5	1.70e5
25	mnb (GeneID 32771)	DRSC20353	4.16e5	3.52e5
26	stmA (GeneID 35865)	DRSC05120	84940	90527
27	stmA (GeneID 35865)	DRSC07593	64037	65533
28	insc (GeneID 37355)	DRSC04695	50317	45137
29	yps (GeneID 39377)	DRSC11411	74613	72650
30	CG4483 (GeneID 39057)	DRSC10426	2.05e5	1.78e5
31	slmb (GeneID 42504)	DRSC17056	42527	42823
32	SiaT (GeneID 37950)	DRSC04494	57230	50847
33	CG12398 (GeneID 32422)	DRSC19454	2.46e5	1.97e5
34	CG31528 (GeneID 318785)	DRSC12003	70600	65353
